Results: US20120172333A1, “PYRROLO-PYRIDINE DERIVATIVES AS ACTIVATORS OF AMPK” (GLAXOSMITHKLINE LLC, priority 2009, published 2012)
Some results were stated once for a whole list of compounds, not compound by compound.

Tested on: Human recombinant AMPK
Assay: AMPK enzymatic assay (Z'Lyte FRET)
Format: biochemical
Conditions: ATP 100 μM, peptide 2 μM, 1% DMSO, 1 hour at 30° C.; means of at least 2 independent experiments

| Compound | pEC200 (-Log(compound concentration leading to a 2-fold AMPK activity increase)) |
| --- | --- |
| Cc1ccc(-c2ccc(-n3c(Cl)cc4[nH]c(=O)c(C#N)c(O)c43)cc2)cc1 [Example 27, 2-Chloro-7-hydroxy-1-(4′-methyl-4-biphenylyl)-5-oxo-4,5-dihydro-1H-pyrrolo[3,2-b]pyridine-6-carbonitrile] | greater than 4.0 |
| N#Cc1c(O)c2c(ccn2-c2ccc(-c3ccncc3)cc2)[nH]c1=O [Example 50, 7-Hydroxy-5-oxo-1-[4-(4-pyridinyl)phenyl]-4,5-dihydro-1H-pyrrolo[3,2-b]pyridine-6-carbonitrile] | greater than 4.0 |
| N#Cc1c(O)c2c(ccn2-c2ccc(-c3ccc[nH]3)cc2)[nH]c1=O [Example 56, 7-Hydroxy-5-oxo-1-[4-(1H-pyrrol-2-yl)phenyl]-4,5-dihydro-1H-pyrrolo[3,2-b]pyridine-6-carbonitrile] | greater than 4.0 |
| C[Si](C)(C)c1ccc(-c2ccc(-n3ccc4[nH]c(=O)c(C#N)c(O)c43)cc2)cc1 [Example 45, 7-Hydroxy-5-oxo-1-[4′-(trimethylsilyl)-4-biphenylyl]-4,5-dihydro-1H-pyrrolo[3,2-b]pyridine-6-carbonitrile] | greater than 4.0 |
| N#Cc1ccc(-c2c(O)c3c(ccn3-c3ccc(-c4ccccc4O)cc3)[nH]c2=O)cc1 [Example 39, 4-[7-hydroxy-1-(2′-hydroxy-4-biphenylyl)-5-oxo-4,5-dihydro-1H-Pyrrolo[3,2-b]pyridin-6-yl]benzonitrile] | greater than 4.0 |
| Cc1cccc(-c2ccc(-n3ccc4[nH]c(=O)c(C#N)c(O)c43)cc2)n1 [Example 49, 7-Hydroxy-1-[4-(6-methyl-2-pyridinyl)phenyl]-5-oxo-4,5-dihydro-1H-pyrrolo[3,2-b]pyridine-6-carbonitrile] | greater than 4.0 |
| N#Cc1c(O)c2c(ccn2-c2ccccc2)[nH]c1=O [Example 9, 7-Hydroxy-5-oxo-1-phenyl-4,5-dihydro-1H-pyrrolo[3,2-b]pyridine-6-carbonitrile] | greater than 4.0 |
| Cc1cccc(-c2ccc(-n3c(Cl)cc4[nH]c(=O)c(C#N)c(O)c43)cc2)c1O [Example 69, 2-Chloro-7-hydroxy-1-(2′-hydroxy-3′-methyl-4-biphenylyl)-5-oxo-4,5-dihydro-1H-pyrrolo[3,2-b]pyridine-6-carbonitrile] | greater than 4.0 |
| COc1cccc(-c2ccc(-n3ccc4[nH]c(=O)c(C#N)c(O)c43)cc2)c1O [Example 10, 7-Hydroxy-1-[2′-hydroxy-3′-(methyloxy)-4-biphenylyl]-5-oxo-4,5-dihydro-1H-pyrrolo[3,2-b]pyridine-6-carbonitrile] | greater than 4.0 |
| N#Cc1c(O)c2c(cc(Cl)n2-c2ccc(Br)cc2)[nH]c1=O [Example 23, 1-(4-Bromophenyl)-2-chloro-7-hydroxy-5-oxo-4,5-dihydro-1H-pyrrolo[3,2-b]pyridine-6-carbonitrile] | greater than 4.0 |
| N#Cc1c(O)c2c(cc(Cl)n2-c2ccc(-c3ccccc3O)cc2)[nH]c1=O [Example 26, 2-Chloro-7-hydroxy-1-(2′-hydroxy-4-biphenylyl)-5-oxo-4,5-dihydro-1H-pyrrolo[3,2-b]pyridine-6-carbonitrile] | greater than 4.0 |
| N#Cc1c(O)c2c(ccn2-c2ccc(-c3ccc(F)nc3)cc2)[nH]c1=O [Example 22, 1-[4-(6-Fluoro-3-pyridinyl)phenyl]-7-hydroxy-5-oxo-4,5-dihydro-1H-pyrrolo[3,2-b]pyridine-6-carbonitrile] | greater than 4.0 |
| N#Cc1c(O)c2c(ccn2-c2ccc(-c3c(O)cccc3Cl)cc2)[nH]c1=O [Example 71, 1-(2′-Chloro-6′-hydroxy-4-biphenylyl)-7-hydroxy-5-oxo-4,5-dihydro-1H-pyrrolo[3,2-b]pyridine-6-carbonitrile] | greater than 4.0 |
| N#Cc1c(O)c2c(cc(Cl)n2-c2ccc(-c3ccccc3F)cc2)[nH]c1=O [Example 25, 2-Chloro-1-(2′-fluoro-4-biphenylyl)-7-hydroxy-5-oxo-4,5-dihydro-1H-pyrrolo[3,2-b]pyridine-6-carbonitrile] | greater than 4.0 |
| N#Cc1c(O)c2c(ccn2-c2ccc(-c3ccccc3F)cc2)[nH]c1=O [Example 11, 1-(2′-Fluoro-4-biphenylyl)-7-hydroxy-5-oxo-4,5-dihydro-1H-pyrrolo[3,2-b]pyridine-6-carbonitrile] | greater than 4.0 |

Same assay, conditions: same AMPK enzymatic assay; ATP 100 μM, peptide 2 μM

| average pEC50 | Compound |
| --- | --- |
| greater than 4.5 | Cc1ccc(-n2c(Cl)cc3[nH]c(=O)c(-c4cccc([N+](=O)[O-])c4)c(O)c32)cc1 [Example 142, 2-Chloro-7-hydroxy-1-(4-methylphenyl)-6-(3-nitrophenyl)-1,4-dihydro-5H-pyrrolo[3,2-b]pyridin-5-one] |
| greater than 4.5 | CCOc1cccc(-c2c(O)c3c(cc(Cl)n3-c3ccc(C)cc3)[nH]c2=O)c1 [Example 139, 2-Chloro-6-[3-(ethyloxy)phenyl]-7-hydroxy-1-(4-methylphenyl)-1,4-dihydro-5H-pyrrolo[3,2-b]pyridin-5-one] |
| greater than 4.5 | Cc1ccc(-c2ccc(-n3c(Cl)cc4[nH]c(=O)c(-c5ccccc5)c(O)c43)cc2)cc1 [Example 158, 2-Chloro-7-hydroxy-1-(4′-methyl-4-biphenylyl)-6-phenyl-1,4-dihydro-5H-pyrrolo[3,2-b]pyridin-5-one] |
| greater than 4.5 | O=c1[nH]c2cc(Cl)n(-c3ccc(C(F)(F)F)cc3)c2c(O)c1-c1ccccc1 [Example 132, 2-Chloro-7-hydroxy-6-phenyl-1-[4-(trifluoromethyl)phenyl]-1,4-dihydro-5H-pyrrolo[3,2-b]pyridin-5-one] |
| greater than 4.5 | O=C(O)c1ccc(-c2c(O)c3c(cc(Cl)n3-c3ccc(-c4ccsc4)cc3)[nH]c2=O)cc1 [Example 162, 4-{2-Chloro-7-hydroxy-5-oxo-1-[4-(3-thienyl)phenyl]-4,5-dihydro-1H-pyrrolo[3,2-b]pyridin-6-yl}benzoic acid] |
| greater than 4.5 | Cc1ccc(-n2c(Cl)cc3[nH]c(=O)c(-c4ccccc4F)c(O)c32)cc1 [Example 134, 2-Chloro-6-(2-fluorophenyl)-7-hydroxy-1-(4-methylphenyl)-1,4-dihydro-5H-pyrrolo[3,2-b]pyridin-5-one] |
| greater than 4.5 | O=c1[nH]c2cc(Cl)n(-c3ccc(C(F)(F)F)cc3)c2c(O)c1-c1ccccc1F [Example 136, 2-Chloro-6-(2-fluorophenyl)-7-hydroxy-1-[4-(trifluoromethyl)phenyl]-1,4-dihydro-5H-pyrrolo[3,2-b]pyridin-5-one] |
| greater than 4.5 | N#Cc1c(O)c2c(cc(Cl)n2-c2ccc(-c3csc4ccccc34)cc2)[nH]c1=O [Example 98, 1-[4-(1-Benzothien-3-yl)phenyl]-2-chloro-7-hydroxy-5-oxo-4,5-dihydro-1H-pyrrolo[3,2-b]pyridine-6-carbonitrile] |
| greater than 4.5 | O=c1[nH]c2cc(Cl)n(-c3ccc(C(F)(F)F)cc3)c2c(O)c1-c1cccc(F)c1 [Example 137, 2-Chloro-6-(3-fluorophenyl)-7-hydroxy-1-[4-(trifluoromethyl)phenyl]-1,4-dihydro-5H-pyrrolo[3,2-b]pyridin-5-one] |
| greater than 4.5 | N#Cc1cccc(-c2c(O)c3c(cc(Cl)n3-c3ccc(-c4ccsc4)cc3)[nH]c2=O)c1 [Example 155, 3-{2-Chloro-7-hydroxy-5-oxo-1-[4-(3-thienyl)phenyl]-4,5-dihydro-1H-pyrrolo[3,2-b]pyridin-6-yl}benzonitrile] |

More lines, now with the values behind:

| Compound | average pEC50 |
| --- | --- |
| COc1ccc(-n2ccc3[nH]c(=O)c(-c4ccccc4F)c(O)c32)cc1 [Example 148, 6-(2-Fluorophenyl)-7-hydroxy-1-[4-(methyloxy)phenyl]-1,4-dihydro-5H-pyrrolo[3,2-b]pyridin-5-one] | greater than 4.5 |
| Cc1ccc(-c2ccc(-n3c(Cl)cc4[nH]c(=O)c(C#N)c(O)c43)cc2)s1 [Example 112, 2-Chloro-7-hydroxy-1-[4-(5-methyl-2-thienyl)phenyl]-5-oxo-4,5-dihydro-1H-pyrrolo[3,2-b]pyridine-6-carbonitrile] | greater than 4.5 |
| N#Cc1c(O)c2c(ccn2-c2ccc(-c3nccs3)cc2)[nH]c1=O [Example 87, 7-Hydroxy-5-oxo-1-[4-(1,3-thiazol-2-yl)phenyl]-4,5-dihydro-1H-pyrrolo[3,2-b]pyridine-6-carbonitrile] | greater than 4.5 |
| Cc1ccc(-c2ccc(-n3ccc4[nH]c(=O)c(C#N)c(O)c43)cc2)s1 [Example 94, 7-Hydroxy-1-[4-(5-methyl-2-thienyl)phenyl]-5-oxo-4,5-dihydro-1H-pyrrolo[3,2-b]pyridine-6-carbonitrile] | greater than 4.5 |
| N#Cc1c(O)c2c(cc(Cl)n2-c2ccc(-c3ccc(Cl)s3)cc2)[nH]c1=O [Example 96, 2-Chloro-1-[4-(5-chloro-2-thienyl)phenyl]-7-hydroxy-5-oxo-4,5-dihydro-1H-pyrrolo[3,2-b]pyridine-6-carbonitrile] | greater than 4.5 |
| CC(=O)c1ccc(-n2c(Cl)cc3[nH]c(=O)c(C#N)c(O)c32)cc1 [Example 156, 1-(4-Acetylphenyl)-2-chloro-7-hydroxy-5-oxo-4,5-dihydro-1H-pyrrolo[3,2-b]pyridine-6-carbonitrile] | greater than 4.5 |
| COc1ccncc1-c1ccc(-n2ccc3[nH]c(=O)c(C#N)c(O)c32)cc1 [Example 77, 7-Hydroxy-1-{4-[4-(methyloxy)-3-pyridinyl]phenyl}-5-oxo-4,5-dihydro-1H-pyrrolo[3,2-b]pyridine-6-carbonitrile] | greater than 4.5 |
| COc1cccc(-c2ccc(-n3c(Cl)cc4[nH]c(=O)c(-c5ccc(C(=O)O)cc5)c(O)c43)cc2)c1O [Example 169] | greater than 4.5 |
